Values of other authors as cited in patent US7186701B2, “Dehydrating agent and method for dehydrating moist article using the agent and dehydrated article obtained by the method” (Kabushiki Kaisha Hayashibara Seibutsu Kagaku Kenkyujo, priority 2001, dated 2007).
At least one structure is not confirmed: it was looked up by name or label, or the drawing left a doubt.

Conditions: cited from earlier work

## OC[C@H]1O[C@H](O[C@H]2O[C@H](CO)[C@@H](O)[C@H](O)[C@H]2O)[C@H](O)[C@@H](O)[C@@H]1O [anhydrous α,α-trehalose]
  moisture-entrapping power, to the weight of the saccharide: about 10 % (w/w)

## OC[C@H]1O[C@H](OC[C@H]2OC(O)(CO)[C@@H](O)[C@@H]2O)[C@H](O)[C@@H](O)[C@@H]1O (some centres unmarked) [palatinose]
  moisture-entrapping power, to the weight of the saccharide: about 5 % (w/w)
